Data reported in PMC5997682.
Results are given in words; binding and its absence hold for the method and conditions named. Binding calls can cover weak binding; strength is not graded here. For some of these results: Tags and fused reporters may be left off the sequences shown. For some of these results: Binding seen in cells or lysates may run through a third protein.

Amino acid sequences for entries named in this document (tags omitted). A change or cut given only in a name is not applied to a line headed by its entry.
UniProt A0A0H2Z644: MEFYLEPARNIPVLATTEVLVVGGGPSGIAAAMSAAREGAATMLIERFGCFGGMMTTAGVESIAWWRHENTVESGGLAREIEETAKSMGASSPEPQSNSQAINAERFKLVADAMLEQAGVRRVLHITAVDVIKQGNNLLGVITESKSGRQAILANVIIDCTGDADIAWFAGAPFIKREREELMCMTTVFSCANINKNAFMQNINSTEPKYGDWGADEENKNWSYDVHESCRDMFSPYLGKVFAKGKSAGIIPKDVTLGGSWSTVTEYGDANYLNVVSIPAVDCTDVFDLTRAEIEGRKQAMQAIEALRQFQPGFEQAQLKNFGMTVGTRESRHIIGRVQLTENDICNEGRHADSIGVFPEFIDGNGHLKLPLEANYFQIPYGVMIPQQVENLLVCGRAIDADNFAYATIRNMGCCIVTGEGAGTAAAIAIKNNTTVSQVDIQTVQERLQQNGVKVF

B1: His-tagged full-length Caspr1 (receptor, UniProt P78357 20-1384)
chain: WGYYGCDEELVGPLYARSLGASSYYSLLTAPRFARLHGISGWSPRIGDPNPWLQIDLMKKHRIRAVATQGSFNSWDWVTRYMLLYGDRVDSWTPFYQRGHNSTFFGNVNESAVVRHDLHFHFTARYIRIVPLAWNPRGKIGLRLGLYGCPYKADILYFDGDDAISYRFPRGVSRSLWDVFAFSFKTEEKDGLLLHAEGAQGDYVTLELEGAHLLLHMSLGSSPIQPRPGHTTVSAGGVLNDQHWHYVRVDRFGRDVNFTLDGYVQRFILNGDFERLNLDTEMFIGGLVGAARKNLAYRHNFRGCIENVIFNRVNIADLAVRRHSRITFEGKVAFRCLDPVPHPINFGGPHNFVQVPGFPRRGRLAVSFRFRTWDLTGLLLFSRLGDGLGHVELTLSEGQVNVSIAQSGRKKLQFAAGYRLNDGFWHEVNFVAQENHAVISIDDVEGAEVRVSYPLLIRTGTSYFFGGCPKPASRWDCHSNQTAFHGCMELLKVDGQLVNLTLVEGRRLGFYAEVLFDTCGITDRCSPNMCEHDGRCYQSWDDFICYCELTGYKGETCHTPLYKESCEAYRLSGKTSGNFTIDPDGSGPLKPFVVYCDIRENRAWTVVRHDRLWTTRVTGSSMERPFLGAIQYWNASWEEVSALANASQHCEQWIEFSCYNSRLLNTAGGYPYSFWIGRNEEQHFYWGGSQPGIQRCACGLDRSCVDPALYCNCDADQPQWRTDKGLLTFVDHLPVTQVVIGDTNRSTSEAQFFLRPLRCYGDRNSWNTISFHTGAALRFPPIRANHSLDVSFYFRTSAPSGVFLENMGGPYCQWRRPYVRVELNTSRDVVFAFDVGNGDENLTVHSDDFEFNDDEWHLVRAEINVKQARLRVDHRPWVLRPMPLQTYIWMEYDQPLYVGSAELKRRPFVGCLRAMRLNGVTLNLEGRANASEGTSPNCTGHCAHPRLPCFHGGRCVERYSYYTCDCDLTAFDGPYCNHDIGGFFEPGTWMRYNLQSALRSAAREFSHMLSRPVPGYEPGYIPGYDTPGYVPGYHGPGYRLPDYPRPGRPVPGYRGPVYNVTGEEVSFSFSTSSAPAVLLYVSSFVRDYMAVLIKDDGTLQLRYQLGTSPYVYQLTTRPVTDGQPHSINITRVYRNLFIQVDYFPLTEQKFSLLVDSQLDSPKALYLGRVMETGVIDPEIQRYNTPGFSGCLSGVRFNNVAPLKTHFRTPRPMTAELAEALRVQGELSESNCGAMPRLVSEVPPELDPWYLPPDFPYYHDEGWVAILLGFLVAFLLLGLVGMLVLFYLQNHRYKGSYHTNEPKAAHEYHPGSKPPLPTSGPAQVPTPTAAPNQAPASAPAPAPTPAPAPGPRDQNLPQILEESRSE
B2: endogenous Caspr1 in HBMECs (receptor, UniProt P78357 20-1384)
chain: B1 chain
B3: Caspr1(203–538), His-tagged, in vitro translated (domain or fragment, UniProt P78357 203-538)
chain: FKTEEKDGLLLHAEGAQGDYVTLELEGAHLLLHMSLGSSPIQPRPGHTTVSAGGVLNDQHWHYVRVDRFGRDVNFTLDGYVQRFILNGDFERLNLDTEMFIGGLVGAARKNLAYRHNFRGCIENVIFNRVNIADLAVRRHSRITFEGKVAFRCLDPVPHPINFGGPHNFVQVPGFPRRGRLAVSFRFRTWDLTGLLLFSRLGDGLGHVELTLSEGQVNVSIAQSGRKKLQFAAGYRLNDGFWHEVNFVAQENHAVISIDDVEGAEVRVSYPLLIRTGTSYFFGGCPKPASRWDCHSNQTAFHGCMELLKVDGQLVNLTLVEGRRLGFYAEVLFDTC
B4: Caspr1(203–538), His-tagged, expressed in HEK293T cells (domain or fragment, UniProt P78357 203-538)
chain: B3 chain
B5: Caspr1(203–355), His-tagged, in vitro translated (domain or fragment, UniProt P78357 203-355)
chain: FKTEEKDGLLLHAEGAQGDYVTLELEGAHLLLHMSLGSSPIQPRPGHTTVSAGGVLNDQHWHYVRVDRFGRDVNFTLDGYVQRFILNGDFERLNLDTEMFIGGLVGAARKNLAYRHNFRGCIENVIFNRVNIADLAVRRHSRITFEGKVAFRC

Columns and labels:
[1] = target: T1, GST-tagged Caspr1(203–355) peptide (human) (UniProt P78357); assay: ELISA; MaxiSorp plates coated with GST-tagged Caspr1(203–355) (4 µg/well), blocked with 1% BSA, His-tagged IbeA applied 2 h at 37 °C then overnight at 4 °C; anti-His, HRP, TMB, read at 370 nm; both purified
T1 sequence: B5 chain

GST-IbeA (E. coli) [2] = assay: pull-down; GST-IbeA prebound to Glutathione Sepharose 4B, incubated overnight at 4 °C with lysate of HEK293T cells transfected with His-tagged Caspr1 forms; binding buffer 20 mM Tris, 50 mM NaCl, 10% glycerol, 1% Nonidet P-40; blot with anti-His; only the target purified
GST-IbeA (E. coli) [3] = assay: pull-down; GST fusion proteins prebound to Glutathione Sepharose 4B, incubated overnight at 4 °C with HBMECs lysate; binding buffer 20 mM Tris, 50 mM NaCl, 10% glycerol, 1% Nonidet P-40; blot with Caspr1 antibody; only the target purified
GST-IbeA (E. coli) [4] = assay: pull-down; GST-IbeA or its GST-tagged truncated forms prebound to Glutathione Sepharose 4B, incubated overnight at 4 °C with in vitro translated (TNT) His-tagged Caspr1 fragments; blot with anti-His; only the target purified
[5] = target: GST-tagged IbeA(229–342) (E. coli); assay: as above

Molecule | binding (GST-IbeA (E. coli) [2]) | binding (GST-IbeA (E. coli) [4]) | further results
recombinant His-tagged IbeA protein (from UniProt A0A0H2Z644) | – | – | binding [1]: binds
B1 | binds | – | –
B2 | – | – | binding (GST-IbeA (E. coli) [3]): binds
B3 | – | binds | –
B4 | binds | – | –
B5 | – | binds | binding [5]: binds
